This is an account of results in the supplement of paper PMC10735217.

The assay deals with HEK293A TEAD-LUC reporter. Briefly: TEAD-luciferase reporter activity (YAP activation), robust Z score vs plate; higher = stronger YAP/TEAD activation. As to conditions: 24 h. In general terms: In a reporter assay the amount or activity of a reporter protein is the signal.

Some of the results follow. Repeats in this data set agree poorly, so a single value says little.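 The human kidney-derived cells carry a stably integrated construct of eight TEAD-binding elements driving luciferase, read by luminescence in a drug-repurposing library screen. A compound counts as a hit when its signal is more than five robust Z scores above the plate mean.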

As for `CCOc1ccc(NC(=O)CN)cc1`, the TEAD-luciferase reporter activity reads like this: (compound concentration: 200 nM) inactive: -1.22; (compound concentration: 2 uM) inactive: -1.19; (compound concentration: 10 uM) inactive: 0.0779.
As for `O=C1OC2(c3ccc(O)cc3Oc3cc(O)ccc32)c2ccccc21` [Fluorescein sodium], the TEAD-luciferase reporter activity was inactive: -0.638 (compound concentration: 200 nM), inactive: -0.279 (compound concentration: 2 uM) and inactive: -1.51 (compound concentration: 10 uM).
For `COc1ccc(Cn2c(C)nc3c(C)nc(Cl)nc32)cc1OC1CCCC1`, in that order: inactive: 1.08, inactive: -1.14 and inactive: -1.36.
On to `NS(=O)(=O)c1cc(Cl)c(Cl)c(S(N)(=O)=O)c1` [Diclofenamide], for which the TEAD-luciferase reporter activity is inactive: -0.0742 (compound concentration: 200 nM), inactive: 0.309 (compound concentration: 2 uM) and inactive: -0.664 (compound concentration: 10 uM).
Turning to `CNCC/C=C1\c2ccccc2CC(O)c2ccccc21` (stereo unspecified), the TEAD-luciferase reporter activity is inactive: 0.861 (compound concentration: 200 nM), inactive: -1.95 (compound concentration: 2 uM) and active: 8.72 (compound concentration: 10 uM).
With `CN(C)Cc1cc(F)ccc1Sc1cccc(O)c1`, the TEAD-luciferase reporter activity is inactive: -0.885 (compound concentration: 200 nM), inactive: -1.39 (compound concentration: 2 uM) and inactive: -0.54 (compound concentration: 10 uM).
With `CC1(C)OC2COC3(COS(N)(=O)=O)OC(C)(C)OC3C2O1` (stereo unspecified) [topiramate ER, Upsher-Smith], the TEAD-luciferase reporter activity is, setting by setting: (compound concentration: 200 nM) inactive: -1.31; (compound concentration: 10 uM) inactive: -0.12.
As for `CC1(C)OC2COC3(COS(N)(=O)=O)OC(C)(C)OC3C2O1` (stereo unspecified) [topiramate ER], for the setting “compound concentration: 2 uM”, the TEAD-luciferase reporter activity is inactive: -1.06.
On to `N#Cc1ccc(-c2ccc(S(=O)(=O)Nc3cccc(N)n3)cc2)cc1`, for which the TEAD-luciferase reporter activity (compound concentration: 200 nM) is inactive: -1.12, the TEAD-luciferase reporter activity (compound concentration: 2 uM) was inactive: -1.23 and the TEAD-luciferase reporter activity (compound concentration: 10 uM) was inactive: -0.0864.
Turning to `COc1ccc(C#N)cc1C(=O)NCCN1CCC(C(=O)c2ccc(F)cc2)CC1` [prideperone], the TEAD-luciferase reporter activity was inactive: -2.24 (compound concentration: 200 nM), inactive: -0.828 (compound concentration: 2 uM) and inactive: 1.07 (compound concentration: 10 uM).
Regarding `COc1ccc(C(=O)N2CCC(N3CCCC3=O)CC2)cc1`, the TEAD-luciferase reporter activity by setting is: (compound concentration: 200 nM) inactive: -0.437; (compound concentration: 10 uM) inactive: -1.42.
For `COc1ccc2cc1Oc1ccc(cc1)C[C@H]1c3cc(c(OC)cc3CCN1C)Oc1c(OC)c(OC)cc3c1[C@H](C2)N(C)CC3` [Hanfangchin A], the TEAD-luciferase reporter activity (compound concentration: 2 uM) was inactive: 0.186.
With `COc1ccc2cc1Oc1ccc(cc1)C[C@H]1c3cc(c(OC)cc3CCN1C)Oc1c(OC)c(OC)cc3c1[C@H](C2)N(C)CC3`, the TEAD-luciferase reporter activity (compound concentration: 200 nM) is inactive: -2.45 and the TEAD-luciferase reporter activity (compound concentration: 10 uM) was inactive: -0.378.
For `COc1ncc(OC)c2c(C(=O)C(=O)N3CCN(C(=O)c4ccccc4)CC3)c[nH]c12`, the TEAD-luciferase reporter activity is, setting by setting: (compound concentration: 200 nM) inactive: -1.48; (compound concentration: 2 uM) inactive: -1.1; (compound concentration: 10 uM) inactive: 3.68.
Take `COc1ccc2c(c1)N(C(=O)OC(C)C)[C@@H](CSC)C(=S)N2`: the TEAD-luciferase reporter activity by setting is: (compound concentration: 200 nM) inactive: -1.08; (compound concentration: 2 uM) inactive: -0.691; (compound concentration: 10 uM) inactive: -1.85.
Consider `CO/N=C(/C(=O)NC1C(=O)N2C(C(=O)OCOC(=O)C(C)(C)C)=CCSC12)c1csc(NC(=O)C(C)N)n1` (stereo unspecified) [ceftizoxime alapivoxil], for which the TEAD-luciferase reporter activity was inactive: -0.663 (compound concentration: 200 nM), inactive: -0.128 (compound concentration: 2 uM) and inactive: -0.0332 (compound concentration: 10 uM).
Turning to `CN1CCC(C(=O)N2c3ccccc3NC(=O)c3cccnc32)CC1`, the TEAD-luciferase reporter activity (compound concentration: 200 nM) is inactive: 0.513, the TEAD-luciferase reporter activity (compound concentration: 2 uM) is inactive: -2.15 and the TEAD-luciferase reporter activity (compound concentration: 10 uM) was inactive: 0.675.
The like results for `COC(=O)[C@H](Cc1cccc(C(=N)N)c1)[C@@H](C)NC(=O)c1ccc(-c2cc[n+]([O-])cc2)cc1` [Otamixaban] were, in that order, inactive: -0.215, inactive: -1.25 and inactive: 0.246.
Turning to `CCN(CC)S(=O)(=O)c1ccc(NS(C)(=O)=O)cc1`, the TEAD-luciferase reporter activity by setting is: (compound concentration: 200 nM) inactive: -2.29; (compound concentration: 2 uM) inactive: 0.433; (compound concentration: 10 uM) inactive: 4.59.
With `CCCCCCCCCCCCS[C@H](C(=O)Nc1cc(C)c(O)c(C)c1C)c1ccccc1`, the TEAD-luciferase reporter activity is, setting by setting: (compound concentration: 200 nM) inactive: -2.4; (compound concentration: 10 uM) inactive: -1.45.
For the compound `CCCCCCCCCCCCS[C@H](C(=O)Nc1cc(C)c(O)c(C)c1C)c1ccccc1` [Eflucimibe], for the setting “compound concentration: 2 uM”, the TEAD-luciferase reporter activity was inactive: 0.428.
For the compound `CCN(CC)CC(=O)Oc1ccc(NC(C)=O)cc1` [propacetamol], the TEAD-luciferase reporter activity is inactive: -1.59 (compound concentration: 200 nM), inactive: 0.364 (compound concentration: 2 uM) and inactive: -0.747 (compound concentration: 10 uM).
Regarding `CS(=O)(=O)NCCN1CCC(CCC(=O)c2cc(Cl)c(N)c3c2OCCO3)CC1`, the TEAD-luciferase reporter activity is inactive: -0.735 (compound concentration: 200 nM), inactive: -2.09 (compound concentration: 2 uM) and inactive: 1.25 (compound concentration: 10 uM).
As for `CCCN1CCCC12Cc1ccccc1CN(C(=O)C(C)C)C2` (stereo unspecified), the TEAD-luciferase reporter activity reads like this: (compound concentration: 200 nM) inactive: -2.26; (compound concentration: 10 uM) inactive: 0.997.
Consider `CCC(=O)NO`, for which the TEAD-luciferase reporter activity is inactive: -0.525 (compound concentration: 200 nM), inactive: -0.321 (compound concentration: 2 uM) and inactive: -0.214 (compound concentration: 10 uM).
`CCCCCCN(C)Cc1ccc(OCCOc2ccc(CN(C)CCCCCC)cc2)cc1`: the TEAD-luciferase reporter activity was inactive: 2.3 (compound concentration: 200 nM), inactive: -0.339 (compound concentration: 2 uM) and inactive: 0.0909 (compound concentration: 10 uM).
`CCCCC/C=C\C/C=C\C/C=C\CCCCC(=O)OC[C@H](O)[C@H]1OC(=O)C(O)=C1O` [Ascorbyl gamolenate]: the TEAD-luciferase reporter activity (compound concentration: 200 nM) is inactive: -1.53, the TEAD-luciferase reporter activity (compound concentration: 2 uM) was inactive: 1.09 and the TEAD-luciferase reporter activity (compound concentration: 10 uM) is inactive: -1.65.
For `O=C(O)c1[nH]c2cc(Cl)cc(Cl)c2c1/C=C1\CCN(c2ccccc2)C1=O`, in that order: inactive: -0.608, inactive: -0.672 and inactive: -0.149.
Consider `CC(N/C(=N\C#N)Nc1ccncc1)C(C)(C)C` (stereo unspecified) [Pinacidil], for which the TEAD-luciferase reporter activity (compound concentration: 200 nM) is inactive: -0.515 and the TEAD-luciferase reporter activity (compound concentration: 10 uM) was inactive: -0.441.
For the compound `CC(N/C(=N\C#N)Nc1ccncc1)C(C)(C)C` (stereo unspecified) [pinacidil], where the note is “compound concentration: 2 uM”, the TEAD-luciferase reporter activity was inactive: 0.429.
